# The campaign covered roughly 330,000 compounds. About 7,700 (2.3%) were called active. This list was built around the results that the source calls inconclusive (neither active nor inactive); the mix of calls is not that of the screen. Calls follow the shape of the dose curve; as a rule, active = well fitted inhibition curve with a large enough effect; inconclusive = small, poorly fitted or top-dose-only effect, or effect the other way; inactive = flat fitted curve, though single readings scatter. A potency beside an inconclusive call is a rough fit, not a confirmed value.
# Assay: qHTS screen for small molecules that inhibit ELG1-dependent DNA repair in human embryonic kidney (HEK293T) cells expressing luciferase-tagged ELG1; also: nearly all actives have a fitted effect of over 55% in size
# Details: HEK293T ELG1-luciferase reporter, luminescence, 16 h, DNA damage induced by 5-fluorouridine; activity change, negative = inhibition: at 46.1 µM (top of the series)
# Procedure, shortened: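 Overnight (16 hr) co-exposure of 2,000 cells/well to 5-fluorouridine and compound at 37 °C preceded detection. Luciferase was quantified via ONE-Glo luminescence; loss of signal denotes inhibition.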
# % is scaled to controls: 0 for no effect and ±100 for the full control effect; potency is read from the fitted curve at half-maximal effect.
Structure (SMILES),Potency,"activity change, negative = inhibition"
CCn1cc(CN2CCc3c([nH]c4ccccc34)C2c2ccc(F)c(OC)c2)c(C)n1 (stereo not given),"inconclusive: 29.1 µM [inhibitor, single point]",
Cc1c(C(=O)N2CCCCC2)c(S(=O)(=O)NCc2ccccc2Cl)c(C)n1C,,inactive: -3.02%
O=C(O)c1ccc(/C=N/NC(=S)NC2CCCCC2)cc1,"inconclusive: 29.1 µM [activator, single point]",
Cc1nc2ccccc2c(=O)n1NCc1cc(Br)cs1,"inconclusive: 29.1 µM [inhibitor, single point]",
CC1=C(C(=O)Nc2ccc(C)cc2)C(c2cccs2)NC(=S)N1 (stereo not given),"inconclusive: 29.1 µM [activator, single point]",
Cc1nc(NC(=O)c2ccc(Cl)cc2)sc1Cc1ccc2c(c1)OCO2,"inconclusive: 4.11 µM [inhibitor, single point]",
O=C(CCC(=O)OCC(=O)c1ccccc1)Nc1cccc2cccnc12,,inactive: 1.42%
CC(Oc1ccc(Br)cc1)C(=O)Nc1ccc(S(=O)(=O)N(C)C2CCN(C)CC2)cc1 (stereo not given),"inconclusive: 14.6 µM [activator, partial curve]",
O=C1c2cc(Br)ccc2OC2C=CC=CC12 (stereo not given),"inconclusive: 23.1 µM [activator, single point]",
O=C(NCc1ccc(F)cc1)c1c2c(nc3ccccc13)CCC2,"inconclusive: 14.6 µM [activator, partial curve]",
COc1ccc(CCNC(=O)C(=O)NCC2CCCN2S(=O)(=O)c2ccccc2)cc1OC (stereo not given),"inconclusive: 9.2 µM [inhibitor, single point]",
COc1cc(Cl)ccc1OCc1cc(C(=O)N2C[C@]3(C)C[C@H]2CC(C)(C)C3)no1,"inconclusive: 2.06 µM [activator, partial curve]",
COc1ccc(C(=O)c2cc([N+](=O)[O-])ccc2N2CCCC2)cc1,"inconclusive: 6.51 µM [inhibitor, partial curve, poor fit]",
CCN1C(=O)C(O)(C2COC(C)(C)CC2=O)c2ccccc21 (stereo not given),,inactive: -11.6%
Cc1ccc(C(CC(=O)N2CCOCC2)c2ccco2)cc1 (stereo not given),,inactive: -7.23%
Cc1nnnn1/C(=C\c1ccccc1)C(=O)OCC(=O)NC1CCCCC1,"inconclusive: 5.17 µM [inhibitor, single point]",
CCCNC(=O)c1cc2ccccc2c(=O)o1,"inconclusive: 29.1 µM [activator, single point]",
CN(C)/C=C/C(=O)c1ccc(F)cc1F,,inactive: 5.63%
Cc1cc(C(=O)N2CCCC(C(=O)c3cccc(C(F)(F)F)c3)C2)nc(C)n1 (stereo not given),,inactive: 5.96%
COc1ccc(CCNC(=O)C2CCN(Cc3nc(-c4cccc(Cl)c4)oc3C)CC2)cc1OC,"inconclusive: 12.6 µM [inhibitor, partial curve, poor fit]",
CC(C)[C@H](N)C(=O)N1CCC(C(=O)N[C@@H](Cc2ccccc2)C(=O)NCc2ccc(F)cc2)CC1,,inactive: 1.64%
CCOc1ccccc1NC(=O)CSc1ccc([N+](=O)[O-])cc1,"inconclusive: 29.1 µM [inhibitor, single point]",
Cc1cccc(-n2ncc3c(NCc4ccccn4)ncnc32)c1,"inconclusive: 20.6 µM [activator, partial curve]",
Cc1cccc(S(=O)Cc2ccc(C(=O)N3CCN(C(=O)c4ccco4)CC3)o2)c1 (stereo not given),,inactive: 5.57%

# Given with bars between the fields: two of the compounds above
Structure (SMILES) | Potency | activity change, negative = inhibition
CN(C)/C=C/C(=O)c1ccc(F)cc1F |  | inactive: 5.63%
Cc1cccc(-n2ncc3c(NCc4ccccn4)ncnc32)c1 | inconclusive: 20.6 µM [activator, partial curve] | 

# A run of entries taken from the entries so far, as a working copy:
Structure (SMILES),Potency,"activity change, negative = inhibition"
Cc1nc(NC(=O)c2ccc(Cl)cc2)sc1Cc1ccc2c(c1)OCO2,"inconclusive: 4.11 µM [inhibitor, single point]",
O=C(CCC(=O)OCC(=O)c1ccccc1)Nc1cccc2cccnc12,,inactive: 1.42%

# Going on with the list:

Structure (SMILES),Potency,"activity change, negative = inhibition"
CC1(C)Cc2nc3sc(C(=O)NCCO)c(N)c3cc2CO1,"inconclusive: 18.4 µM [activator, partial curve]",
COc1ccc(OC)c(Cc2nnc(CCC(=O)NC3CCCCCCC3)o2)c1,"inconclusive: 20.6 µM [activator, single point]",
COc1cccc(CNCCc2c[nH]c3ccccc23)c1OCc1ccccc1F,"inconclusive: 10 µM [inhibitor, partial curve]",
Cc1cc(Cl)ccc1NC(=O)C1CCN(S(C)(=O)=O)CC1,,inactive: -1.95%
CC(NC(=S)Nc1ccc(OC(F)F)c(Cl)c1)C(C)(C)C (stereo not given),"inconclusive: 29.1 µM [inhibitor, single point]",
O=C1O/C(=C/C(=O)N2CCOCC2)c2ccccc21,,inactive: 3.49%
COC(=O)Cc1ccc(NC(=S)NC(C)(C)C)cc1,"inconclusive: 29.1 µM [activator, single point]",
COC(=O)c1ccc(C(=O)OC)c(NC(=O)CSc2cccc[n+]2[O-])c1,"inconclusive: 29.1 µM [activator, single point]",
CC(=O)c1cccc(NC(=O)NCc2ccccn2)c1,"inconclusive: 11.2 µM [activator, partial curve, poor fit]",
Cc1ccc(S(=O)(=O)N(C)C[C@H]2Oc3ccc(NC(=O)Nc4c(C)noc4C)cc3CC(=O)N([C@@H](C)CO)C[C@@H]2C)cc1,"inconclusive: 10.3 µM [activator, partial curve, poor fit]",
CCN1C(=O)/C(=C2/Sc3ccc(OC)cc3N2C)SC1=Nc1ccc(OC)cc1,,inactive: 23.2%
Cc1ccc(O)c(NC(=O)C2CC(c3c(F)cccc3Cl)=NO2)c1 (stereo not given),,inactive: 16.1%
c1ccc2sc(NC3=NCN(C4CCCCCC4)CN3)nc2c1,"inconclusive: 10 µM [activator, partial curve, poor fit]",
CCOC(=O)CN(Cc1ccccc1)S(=O)(=O)c1ccc(NC(C)=O)cc1,,inactive: -19%
CCC(=O)Nc1ccc(C(=O)NNC(=O)c2cccc(C)c2)cc1,"inconclusive: 25.9 µM [activator, partial curve, poor fit]",
Cn1nc(C(=O)NCCc2ccc(S(N)(=O)=O)cc2)c2ccccc2c1=O,"inconclusive: 16.4 µM [activator, partial curve, poor fit]",
Nc1c(S(=O)(=O)c2ccccc2)c2nc3ccccc3nc2n1/N=C/c1cccc(O)c1,"inconclusive: 29.1 µM [inhibitor, single point]",
Cc1ccc(C)c(N(C(=O)Cn2nnc3ccccc32)C(C(=O)NC(C)(C)C)c2ccsc2)c1 (stereo not given),"inconclusive: 3.26 µM [activator, full curve, poor fit]",
O=C1/C(=C\c2ccccc2)CCc2c1[nH]c1ccccc21,"inconclusive: 9.2 µM [activator, partial curve]",
C/C(=N\NC(=O)c1cc2ccccc2cc1O)c1ccccn1,"inconclusive: 3.66 µM [activator, partial curve]",
CC1CCCCN1C(=O)Cn1cc(/C=C2/C(=O)Nc3ccccc32)c2ccccc21 (stereo not given),"inconclusive: 35.5 µM [inhibitor, partial curve, poor fit]",
COc1ccc(S(=O)(=O)N2CCOCC2)cc1NC(=O)CSc1cc(C)ccc1C,,inactive: -11.9%
CCn1c(C)nnc1SCC(=O)Nc1nccs1,,inactive: 13.7%
CCOc1ccc(C(=O)c2nc3c(n2O)CCCC3)cc1,"inconclusive: 11.6 µM [activator, partial curve]",

Structure (SMILES),Potency,"activity change, negative = inhibition"
CCCOC(=O)c1ccc(NC(=O)CSC2=Nc3ccccc3C3CC=NN23)cc1 (stereo not given),"inconclusive: 29.1 µM [inhibitor, single point]",
Cc1cccc[n+]1CC(=O)Nc1ccc([N+](=O)[O-])cc1Cl,,inactive: -11.1%
O=C(O)C1CCCCN1C(=O)c1ccc(S(=O)(=O)N2CCCC2)cc1 (stereo not given),,inactive: -1.1%
Clc1ccc(OCCCN2CCCCC2)c(Br)c1,"inconclusive: 23.1 µM [activator, partial curve]",
CCOC(=O)c1cnc2cc3c(cn2c1=O)CCCC3,"inconclusive: 20.6 µM [activator, partial curve]",
COc1cccc(C(=O)OCC(=O)Nc2ccc(N3CCOCC3)cc2)c1,"inconclusive: 29.1 µM [activator, single point]",
Cc1cc(=O)c2ccccc2n1Cc1ccccc1,"inconclusive: 18.3 µM [inhibitor, partial curve]",
CC(=O)NCC1CCN(C(=O)C2CCC(=O)N(CCc3cccc(F)c3)C2)CC1 (stereo not given),"inconclusive: 0.58 µM [activator, full curve, poor fit]",
CCn1cc(/C=N/N=C2\CCC3C4CCc5cc(O)ccc5C4CC[C@]23C)c(C)n1 (stereo not given in full),,inactive: 0%
CCN(CC)c1ccc2cc(-c3nnc(-c4ccccc4)o3)c(=O)oc2c1,"inconclusive: 5.8 µM [activator, partial curve]",
Cc1nn(C)cc1/C=N\NC(=O)c1csc2c1CCCC2,"inconclusive: 23.1 µM [activator, single point]",
CCn1c2ccc(F)cc2c2nnc(NN)nc21,,inactive: -18.8%
O=C(Nc1ccccc1F)NC1CCCCCCC1,"inconclusive: 11.6 µM [activator, partial curve]",
Cc1cccc(NC(=O)CSc2nnc(CNC(=O)c3ccco3)o2)c1,,inactive: -2.67%
O=S(=O)(c1cccs1)N1CCN(CCc2ccccc2)CC1,"inconclusive: 25.9 µM [inhibitor, partial curve, poor fit]",
CN(C(=O)c1cc(Cl)c2c(c1)OCCO2)c1c(N)n(Cc2ccccc2)c(=O)[nH]c1=O,,inactive: 27.4%
BrC(=C\c1ccccc1)/C=N/N1CCN(c2ccccc2)CC1,"inconclusive: 18.3 µM [activator, single point]",
COc1cc(C(=O)NNC(=O)c2ccc(NC(=O)C(C)(C)C)cc2)cc(OC)c1OC,,inactive: -14.9%
CCN1CC2=C(OC(N)=C(C#N)C2c2cccs2)/C(=C/c2cccs2)C1 (stereo not given),active: 16.4 µM,
O=C(CSc1n[nH]c(-c2ccccn2)n1)Nc1ccc(Cl)cc1,active: 20.6 µM,
CCCN(CCC)c1ccc(/C=C/c2ccc3cc(OCC)ccc3n2)cc1,"inconclusive: 2.91 µM [activator, full curve]",
CCCC(=O)C1=C(O)C(C(=O)OC)C(C)(C)CC1=Nc1cccc([N+](=O)[O-])c1 (stereo not given),"inconclusive: 3.98 µM [inhibitor, single point]",

# From PubChem BioAssay AID504467 (National Center for Advancing Translational Sciences (NCATS), 2011)
